# Test results reported in the supplement of paper PMC5949888.
# Most values lie at the floor of the assay. Slopes are relative: functional sequences can read slightly below zero.
# Tested on: Saccharomyces cerevisiae PS128 hsf1 delta, HSF1(1-493) fusion
# Assay: growth estimate (transactivation domain function in HSF1 fusion, heat-shock survival) (a.u. (slope of normalised read count over time)); higher = stronger growth at 37°C, i.e. more transactivation activity
# Settings: library: random library
row,Substance,growth estimate
1,VDRVASGSEIRRLVEPGVDF,< -0.25
2,EWDSLNVEDMVIASSCRSQR,< -0.25
3,WHV,< -0.25
4,ATPYGVGGPKAGI,< -0.25
5,VALW,< -0.25
6,EADWPGDPGQLYCLRSIPMP,< -0.25
7,PRWRVSRSWAQEIRGAGMEW,< -0.25
8,LAYLGNQWWVAVTRIAYRMD,< -0.25
9,DRHPAQRRRTRVVPALWEVG,< -0.25
10,RTSGDLRVPK,< -0.25
11,GFRSESGIRGPVLPTTFAAT,< -0.25
12,EIVGSEE,< -0.25
13,YKVRTRRRFCIGSRTASDTT,< -0.25
14,GRYRSASIRAVVPLVLRSIA,< -0.25
15,APGELATSERHVPFLR,< -0.25
16,GGTV,< -0.25
17,PLDYVLVGTTRVSRSS,< -0.25
18,IVRGGSGLFGILAVNRWRPA,< -0.25
19,QTGVTQQPSSIFFAYVVRGQ,< -0.25
20,ARNSA,< -0.25
21,VSHSEGP,< -0.25
22,VNSLSSRDLFLDEHVHKARS,< -0.25
23,MIVERPEPGSA,< -0.25
24,GPFDLRPAEKQ,< -0.25
25,GCRKFGRRAALTRMTMAVSC,< -0.25

row,Substance,growth estimate
1,TGGGRLYDLLFLLPTYLSNQ,< -0.25
2,FCEA,< -0.25
3,ETTMCRKTKHTNRPGAICGA,< -0.25
4,VSSFQR,< -0.25
5,GPRLSRSCNFESGPGHKLIF,< -0.25
6,VIVSRLTQMG,< -0.25
7,CRLFSACSTEVELYALAIR,< -0.25
8,GSEYVVWRPPQASSCANETV,< -0.25
9,ECVRPHRGVAYTNQLFLALR,< -0.25
10,RHVKEDLFHSAVLRM,< -0.25
11,PIQGGYSGNSHYADEC,< -0.25
12,IRVLF,< -0.25
13,DSTCPDGRTTVNQCAALLLG,< -0.25
14,RPTYIRLGISAC,< -0.25
15,VGFCGRTIFQALAG,< -0.25
16,RDRSGGLTCRAERNAGLSSC,< -0.25
17,PRGTA,< -0.25
18,KSQGQAYIR,< -0.25
19,FRRSVGGTVVE,< -0.25
20,GWVRLTERLTDYGGHIWDFI,< -0.25
21,SRLLVPKSLLLRGCTEGCGS,< -0.25
22,YFLRGSTIGVR,< -0.25
23,VSHRNLLNWPSAVSFIRYNC,< -0.25
24,SSIKELDALDSRSPA,< -0.25
25,PDSGTGDTSLGTGIVPRTHL,< -0.25

row,Substance,growth estimate
1,LWVRSFSYFKRGRGSDWNAR,< -0.25
2,VDRVAARITMQRKQHQTVKL,< -0.25
3,LHTVIPGVLQSLSGSRAEEV,< -0.25
4,DHGKLRLTRRFWCRRDTRQL,< -0.25
5,MPSKGFYI,< -0.25
6,NMSAVILFAAGWARLYEVIL,< -0.25
7,MRTSLVRDRL,< -0.25
8,AQSERELTVTVTVQTRLAQM,< -0.25
9,TPCSGGEMPSLPRWRKWRTH,< -0.25
10,NSQAWQGGDYQCSIGVFRAD,< -0.25
11,LCYRRASR,< -0.25
12,EPEYSVWRDMCRTSDKARLH,< -0.25
13,AVQLVGQSSSAAPAGADVIS,-0.245
14,LGKT,-0.219
15,HNVSPLLSLRLVGSFSENNS,< -0.25
16,PRTVSVNRYPDSIGRMVSDA,< -0.25
17,CDSQAW,< -0.25
18,RNDSWNLYACA,< -0.25
19,DGSTST,< -0.25
20,YIAPSSLTVILRPLPTLAAC,< -0.25
21,SIRTS,< -0.25
22,RHSVRPTPSIEREPECPAPG,< -0.25
23,LRGTVVSPQRMKFKEVHCRH,< -0.25
24,SLRAAAIYMTADLHYKTSRT,< -0.25
25,VITVSCL,< -0.25

row,Substance,growth estimate
1,YDRCCRHPGARAGDHIPAVP,< -0.25
2,SEL,< -0.25
3,VLTCLRGRRMIVGVCN,< -0.25
4,LFLR,< -0.25
5,FNLLGLSKYS,-0.245
6,RLSDRPPGRDLN,< -0.25
7,NANIQERHHKLDRTTPPDRA,< -0.25
8,AGLART,< -0.25
9,RVRHFLTSLPYDFCSTGALA,< -0.25
10,GSTDSLLPWMLAASPTYHDP,< -0.25
11,QSCRMNQITLMSTWMYRGFV,< -0.25
12,YRGTKVVSRSITRR,< -0.25
13,TRTPPAGNGGKSTPGQI,< -0.25
14,LCGLKPHALLSPIQHVPAHV,< -0.25
15,NSGMTRRTGEVSLICLPGPR,< -0.25
16,WRLTVGACVWDPSASR,< -0.25
17,TRNSVVCEGTRTGDTA,< -0.25
18,QWSGVGLEKSLVVMKGVSSS,< -0.25
19,VYAGI,0.0687
20,VLFCWSSKANNRWDVVVSHS,< -0.25
21,QLYQ,< -0.25
22,LVGST,< -0.25
23,IVI,< -0.25
24,VRKVFEARQ,< -0.25
25,VQRTASATTVNLFTSVCHLR,< -0.25

row,Substance,growth estimate
1,HMEVV,< -0.25
2,VSCPFRWFICRLQTDCKPRR,< -0.25
3,LSGPWLGLA,-0.246
4,FIAMWSTHVVIVF,< -0.25
5,NGKRRH,< -0.25
6,EGGD,< -0.25
7,SGIYLGRHFSYFQA,< -0.25
8,ELMGGQGGGIDTCVLLLYIP,< -0.25
9,GAHGCTGQRHSSEVSALKGR,< -0.25
10,VDWM,-0.231
11,AVLQQRGHSFEAGARHSRRV,< -0.25
12,TITTTLCTMMSGSYSRSTRI,< -0.25
13,VIGRPVNGSR,< -0.25
14,PWVIDPFGWEQENRAN,-0.247
15,SEPGATVHGA,< -0.25
16,NLFTSASPHEYGVR,< -0.25
17,LRVTTFSIKSASRLQCRTAC,< -0.25
18,PLSDG,< -0.25
19,GWNRL,< -0.25
20,ARRRIRA,< -0.25
21,VNAGYPVRYCLFRTNLAGQQ,< -0.25
22,HLEINGAR,< -0.25
23,PVCRPNATVESLTREWSLPS,< -0.25
24,SRETYFELAFPSC,-0.169
25,PPLSSDESNPGECLS,< -0.25

row,Substance,growth estimate
1,MRSIDREATVHIWARSLDKT,-0.246
2,REKQSYHQGERAA,< -0.25
3,NGHMDSNDSSAGWLPFSKRV,< -0.25
4,NTRTKPVYFCRTPTLKSLMA,-0.25
5,QRHGATGGRAHNLRRHWL,< -0.25
6,LERFRLEVK,-0.189
7,CVSFFNLFNQC,< -0.25
8,NHRRRFKLGGATGELCSERA,< -0.25
9,VSRECPNVSSAGFNYLLASG,< -0.25
10,QRFSGAELNSCDFYALSTRS,< -0.25
11,SSVDGGG,< -0.25
12,VADLG,< -0.25
13,MCCVIDSNDALEDSSSAYFH,< -0.25
14,ARRWDTHWSPFRSDY,-0.154
15,LLCHYMATFIRSRSWPSWG,< -0.25
16,SEWVYDRPISRIHVVIGSKT,< -0.25
17,VILIRMRGM,< -0.25
18,RLR,< -0.25
19,RPGIRIARSTDTQSLAHHGL,< -0.25
20,VSTRVPMITGSIRG,< -0.25

# Shown bar-delimited: part of the list above
row | Substance | growth estimate
4 | NTRTKPVYFCRTPTLKSLMA | -0.25
6 | LERFRLEVK | -0.189
10 | QRFSGAELNSCDFYALSTRS | < -0.25
15 | LLCHYMATFIRSRSWPSWG | < -0.25
18 | RLR | < -0.25
20 | VSTRVPMITGSIRG | < -0.25
